Paper PMC6726635
These are yes or no findings as the source states them, for the method shown. Binding seen in cells or lysates may run through a third protein. Some results given as binding are weak or reduced against the parent protein; the word gives no strength.

By UniProt entry, the sequences of proteins in these tests, tags left out.
UniProt P16671: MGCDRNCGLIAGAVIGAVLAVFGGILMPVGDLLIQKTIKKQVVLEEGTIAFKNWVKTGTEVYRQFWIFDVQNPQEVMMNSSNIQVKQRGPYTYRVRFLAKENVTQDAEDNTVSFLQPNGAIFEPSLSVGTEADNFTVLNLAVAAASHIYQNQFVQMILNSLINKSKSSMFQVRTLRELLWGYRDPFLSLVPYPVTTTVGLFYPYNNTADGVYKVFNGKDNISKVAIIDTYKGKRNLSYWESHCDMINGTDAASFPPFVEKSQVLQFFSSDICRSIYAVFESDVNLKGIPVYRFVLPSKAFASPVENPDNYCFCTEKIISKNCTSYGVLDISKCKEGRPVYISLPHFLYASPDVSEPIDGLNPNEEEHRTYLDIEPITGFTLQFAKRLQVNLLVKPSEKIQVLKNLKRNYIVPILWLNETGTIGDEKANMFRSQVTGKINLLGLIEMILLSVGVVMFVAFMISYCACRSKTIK

T1: Glypican 4 (GPC4), endogenous (human (endogenous in SW480, LoVo, RKO and CACO2)) (UniProt O75487)
T1 sequence: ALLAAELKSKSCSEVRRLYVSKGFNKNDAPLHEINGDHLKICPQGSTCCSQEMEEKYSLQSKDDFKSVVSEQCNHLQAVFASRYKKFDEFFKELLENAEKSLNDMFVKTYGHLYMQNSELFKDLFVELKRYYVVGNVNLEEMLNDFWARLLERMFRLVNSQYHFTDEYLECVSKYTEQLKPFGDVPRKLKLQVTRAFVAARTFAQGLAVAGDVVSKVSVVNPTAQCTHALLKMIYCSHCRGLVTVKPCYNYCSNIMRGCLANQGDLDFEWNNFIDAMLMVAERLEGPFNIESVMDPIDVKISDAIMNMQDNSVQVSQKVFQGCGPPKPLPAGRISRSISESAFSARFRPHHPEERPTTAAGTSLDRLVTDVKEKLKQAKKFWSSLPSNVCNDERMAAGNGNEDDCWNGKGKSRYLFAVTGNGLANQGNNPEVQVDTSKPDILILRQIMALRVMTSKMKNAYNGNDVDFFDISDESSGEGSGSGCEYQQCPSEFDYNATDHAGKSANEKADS


Assays:
[1] = biological target: T1, Glypican 4 (GPC4), endogenous (human (endogenous in SW480, LoVo, RKO and CACO2)); assay: co-IP; reciprocal; anti-GPC4 IP of cell lysates, IgG as negative control; antibody overnight at 4 C, protein A/G magnetic beads, washed with PBS; western blot for CD36
[2] = biological target: Flag-tagged CD36 (LV-CD36) (UniProt P16671); assay: co-IP; anti-Flag IP of SW480 and LoVo LV-CD36 cell lysates against anti-IgG IP; 100 ug lysate protein, antibody overnight at 4 C, protein A/G magnetic beads 5 h at 4 C, washed four times with PBS; western blot for GPC4
[3] = biological target: CD36, endogenous (human (endogenous in RKO and CACO2)) (UniProt P16671); assay: co-IP; endogenous; anti-CD36 IP of RKO and CACO2 cell lysates, IgG as negative control; antibody overnight at 4 C, protein A/G magnetic beads, washed with PBS; western blot for GPC4

| Molecule | binding [1] | binding [2] | binding [3] |
| --- | --- | --- | --- |
| CD36, endogenous (from UniProt P16671 1-472) | binds | – | – |
| Glypican 4 (GPC4), endogenous (protein, UniProt O75487 19-529) ALLAAELKSKSCSEVRRLYVSKGFNKNDAPLHEINGDHLKICPQGSTCCSQEMEEKYSLQSKDDFKSVVSEQCNHLQAVFASRYKKFDEFFKELLENAEKSLNDMFVKTYGHLYMQNSELFKDLFVELKRYYVVGNVNLEEMLNDFWARLLERMFRLVNSQYHFTDEYLECVSKYTEQLKPFGDVPRKLKLQVTRAFVAARTFAQGLAVAGDVVSKVSVVNPTAQCTHALLKMIYCSHCRGLVTVKPCYNYCSNIMRGCLANQGDLDFEWNNFIDAMLMVAERLEGPFNIESVMDPIDVKISDAIMNMQDNSVQVSQKVFQGCGPPKPLPAGRISRSISESAFSARFRPHHPEERPTTAAGTSLDRLVTDVKEKLKQAKKFWSSLPSNVCNDERMAAGNGNEDDCWNGKGKSRYLFAVTGNGLANQGNNPEVQVDTSKPDILILRQIMALRVMTSKMKNAYNGNDVDFFDISDESSGEGSGSGCEYQQCPSEFDYNATDHAGKSANEKADS | – | binds | binds |
